In paper PMC7819943, “Rice protein-binding microarrays: a tool to detect cis-acting elements near promoter regions in rice” one finds binding signal data, which are given here for 42 sequences.

The list shows a part of the results.

The experiment has as its target T1, OsSMF1 (Oryza sativa, UniProt Q6ZLB0 1-436).
T1 sequence: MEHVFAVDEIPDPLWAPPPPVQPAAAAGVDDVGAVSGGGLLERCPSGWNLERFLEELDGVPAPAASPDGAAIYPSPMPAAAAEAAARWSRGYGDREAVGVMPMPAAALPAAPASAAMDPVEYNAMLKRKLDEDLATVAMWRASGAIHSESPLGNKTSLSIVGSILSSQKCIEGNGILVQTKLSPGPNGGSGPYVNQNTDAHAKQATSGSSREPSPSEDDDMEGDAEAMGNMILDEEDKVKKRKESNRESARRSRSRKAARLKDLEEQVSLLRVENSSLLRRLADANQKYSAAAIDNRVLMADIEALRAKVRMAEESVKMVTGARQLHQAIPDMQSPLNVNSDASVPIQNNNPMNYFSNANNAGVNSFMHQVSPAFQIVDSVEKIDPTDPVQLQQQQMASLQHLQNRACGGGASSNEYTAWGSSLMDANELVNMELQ
Put plainly: protein-binding microarray (RPBM); PBS, 2% BSA, 51.3 ng/ul salmon testes DNA, 50 uM zinc acetate, 200 nM TF, 25 C, 1 h; high values mean tight binding. The conditions noted are these: protein: recombinant; tags: N-terminal polyhistidine and DsRed monomer fusion (pET32a); chain copies: 2; label: CyDye5-dUTP incorporated in the synthesized complementary strand; 3' TTTTT single-stranded linker to array surface; dsDNA, one strand shown. In a few lines: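 Binding signal here means per-feature fluorescence intensity in arbitrary units. The values were read on an Axon 4000B scanner after a custom Agilent array, double-stranded by primer extension with Cy5-dUTP, was incubated with 200 nM protein at 25 °C for 1 h in PBS with 2% BSA, salmon testes DNA and 50 µM zinc acetate, then washed. The proteins were transcription factors with an N-terminal polyhistidine tag and DsRed, expressed in E. coli BL21-CodonPlus and purified on Ni–NTA.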
Regarding “GATTAAATGGAAGAGAGAATGAATAATTAAGATTTAAAGACGGAGTCACCTAGTGCAG”, the binding signal was 27400 fluorescence intensity (a.u.). The same measure for “TCTTATTCTGATATGTCCTTAGTGACCTTGTGAATGCGCTCGGAGTCACCTAGTGCAG”: 3200 fluorescence intensity (a.u.); for “CCACGCGGCCGCGTCCAGGTCATCGTCGTCGCCTCGCCTCCGGAGTCACCTAGTGCAG”: 7200 fluorescence intensity (a.u.). The figure for “TTCGTTTGGCTCAAACACGACCGAGATGACGTGGCACGTGCGGAGTCACCTAGTGCAG” is 23800 fluorescence intensity (a.u.); for “GATGGTGAGGTTGGCGTGTAGGTGCGGGCAGCTGTTGTTTCGGAGTCACCTAGTGCAG” it is 4300 fluorescence intensity (a.u.).

For the sequence “ACGAACCACGTCAGCCGAAAACGGGATCAATACTAGCTTTCGGAGTCACCTAGTGCAG”, the binding signal was 5240 fluorescence intensity (a.u.). The same measure for “ACTCGAGGGAAGGGGATTGGGAGTTTACATGAGGGAATTGCGGAGTCACCTAGTGCAG”: 4070 fluorescence intensity (a.u.). Regarding “TTGAGGCCGTAGCCTAAGAGTGTCACGCCGACGCCGATGACGGAGTCACCTAGTGCAG”, the binding signal is 3480 fluorescence intensity (a.u.). The same measure for “GACATGTCACTGGTGTCACACATCATACGATGTCAGCGCCCGGAGTCACCTAGTGCAG”: 5910 fluorescence intensity (a.u.); for “GTCTAAATAATAAGAGGCTGACATGTCGGTCCCACGTGATCGGAGTCACCTAGTGCAG”: 6750 fluorescence intensity (a.u.). The figure for “CTCTCTCTCTCTCGGCGTCGCTTCCCACCGACGCCGCCCACGGAGTCACCTAGTGCAG” is 3800 fluorescence intensity (a.u.). The figure for “CAGTAAAGCTTGGTCATTATTATTGTTGACACATATGAGTCGGAGTCACCTAGTGCAG” is 3720 fluorescence intensity (a.u.); for “GTATTGACCGACCCCGATCCCACGCACGCACGCACGCACCCGGAGTCACCTAGTGCAG” it is 3820 fluorescence intensity (a.u.); for “CTCACTACAGCTAGCTAACCGAGAGCCACACGTCGGTGACCGGAGTCACCTAGTGCAG” it is 4220 fluorescence intensity (a.u.). As for “ACCGCCGTTGCTAGTGTATTCCAGGCGAGTACCCACGTGTCGGAGTCACCTAGTGCAG”, the binding signal was 3700 fluorescence intensity (a.u.). The same measure for “TGAAGAGATAATCCTAATGCTGCAGATAAACTCTTCCAAACGGAGTCACCTAGTGCAG”: 4160 fluorescence intensity (a.u.). The figure for “TCCGTTCCCGGCCGCGGCAGGATCACGGTGTTCTCACGCCCGGAGTCACCTAGTGCAG” is 26300 fluorescence intensity (a.u.). The same measure for “GAGAGGAGGGGAAAGAGAGAAGGTGATGATGTGGCATTCTCGGAGTCACCTAGTGCAG”: 16900 fluorescence intensity (a.u.); for “GCTTCTCCTTCCTCCCCTCCGCGGCCGATCGCGATGGAACCGGAGTCACCTAGTGCAG”: 3400 fluorescence intensity (a.u.). On to “CCATCAATCCACCGCCCCGCCGCGTCTTCTCCTCGTCGGCCGGAGTCACCTAGTGCAG”, for which the binding signal was 3210 fluorescence intensity (a.u.).

As to “GTATTGATCTGATGATCGAGTTGTGGTTATGCCCTTAAGACGGAGTCACCTAGTGCAG”, the binding signal is 3200 fluorescence intensity (a.u.).

For the sequence “TGAACCGGGCCTTTGTTTATTGCTCAATCAATTAAATGTTCGGAGTCACCTAGTGCAG”, the binding signal is 3250 fluorescence intensity (a.u.). The figure for “CCCATTGGCCCACACCGCCAGGTCACTCCACATCCCAACCCGGAGTCACCTAGTGCAG” is 6500 fluorescence intensity (a.u.); for “AATTTTACAACCATTTATTTCTAATCGATTTCGTCATTTGCGGAGTCACCTAGTGCAG” it is 3510 fluorescence intensity (a.u.).

For “CTCTAAGCAACTATGTGTCCGTGTGCACACGCGGCCACGCCGGAGTCACCTAGTGCAG”, the binding signal is 3720 fluorescence intensity (a.u.). The figure for “CTCTCTCTCTCTCTCACTTATCCACTTTTAACTAAATATTCGGAGTCACCTAGTGCAG” is 3760 fluorescence intensity (a.u.); for “TTAAGGACGATTTTGTAATTCAGCTGACAAGACGAGGGATCGGAGTCACCTAGTGCAG” it is 4300 fluorescence intensity (a.u.). The same measure for “GCATGCAGGGGCTGTGACCAGTGGAAACCCGTCATCTGTGCGGAGTCACCTAGTGCAG”: 4020 fluorescence intensity (a.u.). As to “ACAGTACACTTGTGCTGATCTAATCACATTTCAACTGTCTCGGAGTCACCTAGTGCAG”, the binding signal is 3350 fluorescence intensity (a.u.).

As for “TGATTGGCCCACACCTGTCAGTCACCTAGCTCCGGGCCGGCGGAGTCACCTAGTGCAG”, the binding signal was 3760 fluorescence intensity (a.u.).

“GTGTGCGTGCGTGGCTAACTCCTCCTCACCCTCGCTCGATCGGAGTCACCTAGTGCAG”: the binding signal was 8040 fluorescence intensity (a.u.).

Take “ACATTCTAGCCATTCATTCTTCACACCTCATTTAATCCTACGGAGTCACCTAGTGCAG”: the binding signal was 3280 fluorescence intensity (a.u.). The same measure for “CCGCTTTTCCCCGCAAAGCCACGCCACGATGGCCTCCTCGCGGAGTCACCTAGTGCAG”: 6080 fluorescence intensity (a.u.); for “GCGTCCTCCTCTCCTCGGCGTGGAGAGAGAAGGTAGGGAGCGGAGTCACCTAGTGCAG”: 3190 fluorescence intensity (a.u.); for “AGGTGGAGGTGGAGCGGGTGGTTGTCCGGCGTCAGGTTGACGGAGTCACCTAGTGCAG”: 4280 fluorescence intensity (a.u.). “GCTCGCTAATCGCTATAAACCCTACTCCGAAATCCGATTACGGAGTCACCTAGTGCAG”: the binding signal is 14600 fluorescence intensity (a.u.). The same measure for “CCGCGTTGACATCACAAGGCACGTGTCATCGTTGCCGAGCCGGAGTCACCTAGTGCAG”: 11600 fluorescence intensity (a.u.); for “TTTGAGTTCACACACGATGCGAGAATCCACCGTTGGGCTGCGGAGTCACCTAGTGCAG”: 21000 fluorescence intensity (a.u.); for “TTGCAACACATCACCTCTGACGACGTAGCCTACCTTGACACGGAGTCACCTAGTGCAG”: 5750 fluorescence intensity (a.u.).

In the case of “AGGTGGAGACACGTGGAGGAGTCGCATGTGGACATCACAGCGGAGTCACCTAGTGCAG”, the binding signal was 5000 fluorescence intensity (a.u.). The same measure for “GCTGTTTTCTTCTACATTGCGTCCGCGTGGCAATCCAGTCCGGAGTCACCTAGTGCAG”: 8770 fluorescence intensity (a.u.); for “CACTTATGTATGTGATGCGAAAAGGAGGCGTGTGACTTGTCGGAGTCACCTAGTGCAG”: 3270 fluorescence intensity (a.u.).
